Experimental data as given in PubChem BioAssay AID504834 (National Center for Advancing Translational Sciences (NCATS), 2011).
About 22,000 (6.9%) of roughly 320,000 compounds were called active. This list was built around the results that the source calls inconclusive (neither active nor inactive); the mix of calls is not that of the screen. The call rests on the fitted dose curve; in most records, active means well fitted inhibition curve with a large enough effect; inconclusive means small, poorly fitted or top-dose-only effect, or another doubt; inactive means no such curve, though single readings can be large or run the other way. Potencies of inconclusive entries are doubtful fits and often do not repeat.

Test: Primary qHTS for delayed death inhibitors of the malarial parasite plastid, 96 hour incubation
Details: P. falciparum luciferase reporter growth; series mostly up to 28.7 µM; activity change, negative = inhibition: at the top concentration
Outline: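 Luminescence readout: decreased luciferase signal marks inhibited growth of reporter-expressing P. falciparum in infected red cells (2% hematocrit, 0.05% parasitemia final), exposed to compound two generations (96 h, 37 C, 5% CO2).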
On the % scale 0 is the no-effect control and ±100 the full control effect; potency means the concentration at half of the fitted maximal effect.

Q: With `COc1cccc(Cn2c(NCc3cccnc3)nc3c2c(=O)n(C)c(=O)n3C)c1` as the molecule, how does the Potency read?
A: inconclusive: 18.5 µM [inhibitor, single point]

Q: For `CCOC(=O)C(Sc1ncnc2c1sc1nc(N3CCOCC3)c3c(c12)CCCC3)c1ccccc1` (configuration not stated), which Potency is on record?
A: inconclusive: 1.17 µM [inhibitor, full curve, poor fit]

Q: For `CN(CCOc1ccccc1)C(=O)C1CCC(=O)N(CCCN2CCCC2=O)C1` (configuration not stated), which Potency is on record?
A: inconclusive: 6.57 µM [inhibitor, partial curve, poor fit]

Q: With `O=C1C(=O)N(CCN2CCOCC2)C(c2ccc([N+](=O)[O-])cc2)/C1=C(/O)c1ccc2c(c1)OCO2` (configuration not stated) as the molecule, how does the Potency read?
A: inconclusive: 11.7 µM [inhibitor, single point]

Q: With `O=C(CNC(=S)NC(=O)c1ccc(Br)o1)c1ccccc1` as the molecule, how does the Potency read?
A: inconclusive: 9.28 µM [inhibitor, single point]

Q: Which Potency does the source give for `CCOC(=O)/C(C#N)=C/c1c(N2CCN(c3ccccc3)CC2)nc2ccccn2c1=O` here?
A: inconclusive: 2.62 µM [inhibitor, full curve]

Q: With `O=C(NCCN1CCc2ccccc2C1)C1CC(=O)N(C2CCCC2)C1` (configuration not stated) as the molecule, how does the Potency read?
A: inconclusive: 18.5 µM [inhibitor, single point]

Q: For `Cn1c(=O)c2c(nc(N3CCN(Cc4ccccc4)CC3)n2CCCc2ccccc2)n(C)c1=O`, which Potency is on record?
A: active: 6.57 µM

Q: For `CCOC(=O)c1cnc2c(ccc3ccccc32)c1NCCCN(C)C`, which Potency is on record?
A: inconclusive: 0.657 µM [inhibitor, full curve, poor fit]

Q: For `CC1(C)NC(=O)N(CC(O)COc2ccc(N3C(=O)c4ccccc4C3=O)cc2)C1=O` (configuration not stated), which “activity change, negative = inhibition” value is on record?
A: inactive: 16%

Q: With `c1ccc2c(c1)nc(N1CCOCC1)c1nncn12` as the molecule, how does the Potency read?
A: inconclusive: 1.31 µM [inhibitor, partial curve, poor fit]

Q: For `CCCCCCCCCCC[N+](C)(C)CC/C=C1/c2ccccc2Sc2ccc(Cl)cc21`, which Potency is on record?
A: inconclusive: 11.7 µM [inhibitor, single point]

Q: With `Cc1ccc(S(=O)(=O)N(Cc2ccccc2)C(C)C)cc1` as the molecule, how does the Potency read?
A: inconclusive: 18.5 µM [inhibitor, single point]

Q: Which “activity change, negative = inhibition” value does the source give for `Cn1cccc1/C=N/NC(=O)CSc1nc2ccccc2n1C` here?
A: inactive: 39.7%

Q: With `NC(=O)c1ccc(C(F)(F)F)n(Cc2c(Cl)cccc2Cl)c1=O` as the molecule, how does the Potency read?
A: inconclusive: 13.1 µM [inhibitor, single point]

Q: Which Potency does the source give for `CCN(CC)Cc1csc(C(N)=O)c1` here?
A: inconclusive: 18.5 µM [inhibitor, single point]

Q: For `CCOC(=O)C1(Cc2ccccc2Cl)CCN(C(=O)CCn2ccnc2C)CC1`, which Potency is on record?
A: inconclusive: 18.5 µM [inhibitor, single point]
